Experimental data published in PubChem BioAssay AID1471 (National Center for Advancing Translational Sciences (NCATS), 2008).
The whole screen tested about 230,000 compounds, of which about 310 (0.13%) were called active. The shares of active, inactive and inconclusive entries below differ from those in the screen. Calls come from the whole dose curve; as a rule, active = well fitted activation curve with a large enough effect; inconclusive = small, poorly fitted or top-dose-only effect; inactive = no such curve, though single readings can be large or run the other way. A potency beside an inconclusive call is a rough fit, not a confirmed value.

Experiment: qHTS Multiplex Assay to Identify Dual Action Probes in a Cell Model of Huntington: Cytoprotection (ATP); note: nearly all actives have a fitted effect of over 45% in size;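 for cytoprotection (ATP increase): toxic huntingtin expression switched on by the ecdysone agonist tebufenozide; % of control where 0% means no effect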
Settings: PC12 HTT-Q103 induced, ATP luminescence, 40 h; cytoprotection (ATP increase): at 56.4 µM (top of the series) unless noted
From the text: NIH Chemical Genomics Center [NCGC]
NIH Molecular Libraries Probe Production centers Network [MLPCN]
Assay Submitter (PI): Wei Zheng
Huntington's disease is a neurodegenerative disorder caused by a trinucleotide repeat expansion in Exon 1 of the Huntingtin gene. The CAG trinucleotide encodes glutamine and polyglutamine expansions cause cell death in selective areas of the brain. Huntington polyglutamine repeats have the tendency to form aggregates which are observable in later stages of the disease. The exact nature of the aggregates, whether toxic, protective, or insignificant, is unclear.
A stable PC12 cell line containing a gene fusion of Exon 1 of the Huntingtin gene linked to GFP under the control of the inducible ecdysone promoter were used as the cell-based model of Huntington Disease for high throughput screening. Exon 1 of the Huntingtin gene contained an expansion of 103 polyglutamines (Q103) which, when expressed, caused cell death and distinct, bright GFP aggregates. The amount of cell death and the size and intensity of GFP aggregates increased over time and induction level. The cell death were quantified with a measurement of ATP content in the cells. A maximal 40-50% of cell death was observed when the Huntington gene was induced in this cell line.
We optimized this assay in a homogeneous 1536 well format. A quantitative high throughput screen (qHTS) was conducted on the PC12 cells which were induced to express the toxic fusion construct. Small molecules which prevented cell death were identified by using a luminescent ATP quantification method (Perkin Elmer's ATPlite).
PC12 cells stably containing a construct with an ecdysone inducible promoter expressing GFP fused to the exon 1 of HTTQ103 (Huntington protein which containing a 103 ployglutamine expansion) were used.
NCGC Assay Protocol Summary:
Sequence, Parameter, Description
1, Reagent, 5 uL 1500 cells/well 1536 TC treated White clear bottom plate
2, Compound, 23 nL Tebufenozide inducer (100 nM final) to all columns
3, Compound, 23 nL 40 uM to 0.5 nM Libraries
5, Reagent, 5 ul ATPLite cell death assay reagent
6, Detector, 4 sec integration with a Viewlux Luminescent
Media consisted of phenol red free DMEM + 5% equine serum (Hyclone # SH30072.03 ), 5% supplemented Bovine Calf Serum (Hyclone # SH30074.03 ), 1x pen/strep, no G418
Control columns: 1 = DMSO, 2= 2 uM teb dilns (1:1), 4 = 100 nM Teb inducer. Sample columns received 100 nM Teb.
Potency is the fitted concentration of half-maximal effect.

Compound | Potency | cytoprotection (ATP increase)
O=C1Nc2ccc(Cl)cc2C(C#CC2CC2)(C(F)(F)F)O1 (stereo not drawn) | inconclusive: 3.98 µM [activator, single point] | 
Cc1c(S(=O)(=O)N2CCCC(C(=O)O)C2)cnn1C (stereo not drawn) | inconclusive: 3.55 µM [activator, partial curve] | 
O=C(COC(=O)/C=C/c1ccc(OC(F)F)cc1)NCCN1C(=O)CSC1=O | inconclusive: 35.5 µM [activator, partial curve] | 
Cc1sc2nc(SCC(=O)N(C)C)[nH]c(=O)c2c1C |  | inactive: -25.9% [at 0.074 µM]
CCn1cc(C(=O)NCCCN2CCCC(C)C2)c(=O)c2cc(S(=O)(=O)N3CCc4ccccc4C3)ccc21 (stereo not drawn) | inconclusive: 10 µM [activator, single point] | 
COc1ccc(C(=O)N2CCC[C@@]3(CCN(C(=O)Nc4ccccc4)C3)C2)cc1 | inconclusive: 5.62 µM [activator, single point] | 
Cc1ccc(S(=O)(=O)N(CC(=O)NN=C2CCN(C)CC2)c2ccc(F)cc2)cc1 | inconclusive: 3.55 µM [activator, partial curve] | 
COc1ccc(Nc2ccc(S(=O)(=O)N3CCCCCC3)cc2[N+](=O)[O-])cc1 |  | inactive: 7.85% [at 10 µM]
Cc1cc(C)c2nc(SCCC#N)nc(C)c2c1 | inconclusive: 0.891 µM [activator, single point] | 
O=C(CSCc1cnn(-c2ccccc2)c1-n1cccc1)NCc1ccccn1 | inconclusive: 6.31 µM [activator, single point] | 
C=CCSc1nc2c(cnn2-c2ccc(C)c(C)c2)c(=O)[nH]1 |  | inactive: -12.1%
COc1ccccc1NS(=O)(=O)c1cccc(C(=O)N/N=C/c2ccc(N3CCOCC3)cc2)c1 | inconclusive: 6.31 µM [activator, partial curve] | 
Cc1cc(C(=O)Nc2cc(C)n(Cc3ccc(Cl)cc3)n2)no1 | inconclusive: 0.891 µM [activator, single point] | 
CCc1cccc(C)c1NC(=S)N(CCN(C)C)Cc1cccs1 | inconclusive: 3.55 µM [activator, single point] | 
N#C/C(=C\c1cc([N+](=O)[O-])ccc1Cl)C(N)=O | active: 1.26 µM | 
[O-]C1=N/[N+](=C/c2ccc(Cl)c(Cl)c2)CC1 | inconclusive: 0.708 µM [activator, partial curve] | 
O=C(/C=C\c1cccs1)c1c(O)ccc2ccc(=O)oc12 |  | inactive: 11.6% [at 10 µM]
Cc1cccc(N2CCN(C(=O)c3cc(C)oc3C)CC2C)c1 (stereo not drawn) | inconclusive: 3.55 µM [activator, single point] | 

Pulled by structure from above:
Compound | Potency | cytoprotection (ATP increase)
COc1ccc(Nc2ccc(S(=O)(=O)N3CCCCCC3)cc2[N+](=O)[O-])cc1 |  | inactive: 7.85% [at 10 µM]
Cc1c(S(=O)(=O)N2CCCC(C(=O)O)C2)cnn1C (stereo not drawn) | inconclusive: 3.55 µM [activator, partial curve] | 
